The text below walks through data of doi:10.1101/2024.06.18.599616.

Chains of the proteins cited; added tags and fusions are not shown. Lines headed by an entry give the natural chain unless they say otherwise; changes in a name come on top.
UniProt Q09472: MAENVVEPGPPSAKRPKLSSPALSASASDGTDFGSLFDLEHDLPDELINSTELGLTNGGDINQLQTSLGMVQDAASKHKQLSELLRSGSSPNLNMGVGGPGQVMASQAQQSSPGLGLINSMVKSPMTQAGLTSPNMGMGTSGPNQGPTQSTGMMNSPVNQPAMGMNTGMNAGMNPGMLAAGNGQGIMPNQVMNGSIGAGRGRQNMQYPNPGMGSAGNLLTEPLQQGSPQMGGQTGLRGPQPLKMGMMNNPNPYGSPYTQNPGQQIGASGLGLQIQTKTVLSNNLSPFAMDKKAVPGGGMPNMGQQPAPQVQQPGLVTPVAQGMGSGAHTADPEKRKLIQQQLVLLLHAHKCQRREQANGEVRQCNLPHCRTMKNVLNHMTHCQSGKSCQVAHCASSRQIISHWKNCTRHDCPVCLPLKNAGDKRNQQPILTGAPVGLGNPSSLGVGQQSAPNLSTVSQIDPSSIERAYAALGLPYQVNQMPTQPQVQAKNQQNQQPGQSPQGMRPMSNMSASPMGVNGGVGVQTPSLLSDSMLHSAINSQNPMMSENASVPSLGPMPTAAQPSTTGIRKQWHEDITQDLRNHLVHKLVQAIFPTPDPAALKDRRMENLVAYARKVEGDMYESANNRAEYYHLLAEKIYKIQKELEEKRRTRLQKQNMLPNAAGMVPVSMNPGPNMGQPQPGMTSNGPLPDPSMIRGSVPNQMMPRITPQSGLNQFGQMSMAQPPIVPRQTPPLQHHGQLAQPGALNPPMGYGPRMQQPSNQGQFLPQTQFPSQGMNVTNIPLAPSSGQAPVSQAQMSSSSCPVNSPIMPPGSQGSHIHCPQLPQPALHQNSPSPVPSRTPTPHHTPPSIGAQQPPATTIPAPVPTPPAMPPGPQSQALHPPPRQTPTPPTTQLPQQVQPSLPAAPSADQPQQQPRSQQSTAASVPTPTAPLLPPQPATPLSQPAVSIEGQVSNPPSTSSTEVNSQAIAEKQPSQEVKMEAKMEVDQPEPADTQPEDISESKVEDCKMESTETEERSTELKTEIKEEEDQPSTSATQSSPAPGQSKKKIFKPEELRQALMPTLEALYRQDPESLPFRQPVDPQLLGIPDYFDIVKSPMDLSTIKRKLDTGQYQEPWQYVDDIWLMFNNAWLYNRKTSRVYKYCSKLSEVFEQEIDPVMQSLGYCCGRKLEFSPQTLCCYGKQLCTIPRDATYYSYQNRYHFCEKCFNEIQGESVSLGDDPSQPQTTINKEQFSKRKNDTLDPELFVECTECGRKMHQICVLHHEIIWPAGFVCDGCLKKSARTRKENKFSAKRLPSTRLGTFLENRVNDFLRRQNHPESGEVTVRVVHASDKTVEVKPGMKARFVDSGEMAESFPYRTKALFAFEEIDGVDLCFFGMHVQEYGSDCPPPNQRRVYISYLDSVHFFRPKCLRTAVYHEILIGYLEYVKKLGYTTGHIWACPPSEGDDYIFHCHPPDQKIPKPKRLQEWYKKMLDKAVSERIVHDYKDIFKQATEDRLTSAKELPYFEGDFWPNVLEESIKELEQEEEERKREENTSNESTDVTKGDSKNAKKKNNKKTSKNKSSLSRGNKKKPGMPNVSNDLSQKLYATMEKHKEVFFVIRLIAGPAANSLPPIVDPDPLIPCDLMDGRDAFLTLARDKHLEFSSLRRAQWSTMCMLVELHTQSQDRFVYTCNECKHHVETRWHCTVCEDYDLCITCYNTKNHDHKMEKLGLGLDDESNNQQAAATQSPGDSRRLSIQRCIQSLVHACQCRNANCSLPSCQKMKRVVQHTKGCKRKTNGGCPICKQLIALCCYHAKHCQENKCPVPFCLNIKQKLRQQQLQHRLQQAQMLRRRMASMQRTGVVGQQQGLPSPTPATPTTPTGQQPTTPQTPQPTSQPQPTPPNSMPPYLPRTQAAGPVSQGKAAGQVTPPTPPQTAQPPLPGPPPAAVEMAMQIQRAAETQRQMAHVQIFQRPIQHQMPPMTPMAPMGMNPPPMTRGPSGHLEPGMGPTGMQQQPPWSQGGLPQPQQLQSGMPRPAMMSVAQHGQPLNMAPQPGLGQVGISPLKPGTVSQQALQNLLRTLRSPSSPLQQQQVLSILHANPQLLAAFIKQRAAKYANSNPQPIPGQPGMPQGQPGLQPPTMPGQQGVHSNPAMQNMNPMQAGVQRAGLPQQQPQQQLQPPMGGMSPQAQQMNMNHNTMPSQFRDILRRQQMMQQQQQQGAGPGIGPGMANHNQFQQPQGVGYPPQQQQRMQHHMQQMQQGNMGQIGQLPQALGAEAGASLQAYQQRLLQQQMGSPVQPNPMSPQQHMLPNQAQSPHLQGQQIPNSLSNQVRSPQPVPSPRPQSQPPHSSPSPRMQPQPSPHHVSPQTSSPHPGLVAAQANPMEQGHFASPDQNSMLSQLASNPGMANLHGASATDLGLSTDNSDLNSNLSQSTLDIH
UniProt Q9UF56: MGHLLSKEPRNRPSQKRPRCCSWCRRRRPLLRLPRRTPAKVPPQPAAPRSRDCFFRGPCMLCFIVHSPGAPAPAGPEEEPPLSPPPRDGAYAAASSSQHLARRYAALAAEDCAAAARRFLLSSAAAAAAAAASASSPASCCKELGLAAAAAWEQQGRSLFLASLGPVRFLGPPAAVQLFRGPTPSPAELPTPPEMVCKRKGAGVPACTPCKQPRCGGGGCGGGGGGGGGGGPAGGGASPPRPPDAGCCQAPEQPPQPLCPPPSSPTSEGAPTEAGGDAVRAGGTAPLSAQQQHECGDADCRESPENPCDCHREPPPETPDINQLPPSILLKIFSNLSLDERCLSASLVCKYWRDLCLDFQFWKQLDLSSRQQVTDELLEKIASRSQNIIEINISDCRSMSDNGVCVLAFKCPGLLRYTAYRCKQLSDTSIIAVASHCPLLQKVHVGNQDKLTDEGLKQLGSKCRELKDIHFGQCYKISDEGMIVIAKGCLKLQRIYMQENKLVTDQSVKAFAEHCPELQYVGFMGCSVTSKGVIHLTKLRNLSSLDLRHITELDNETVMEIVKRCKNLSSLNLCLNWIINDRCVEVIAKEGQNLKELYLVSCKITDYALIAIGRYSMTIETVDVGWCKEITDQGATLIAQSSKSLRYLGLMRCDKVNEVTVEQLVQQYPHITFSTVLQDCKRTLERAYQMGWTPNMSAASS
UniProt Q99873: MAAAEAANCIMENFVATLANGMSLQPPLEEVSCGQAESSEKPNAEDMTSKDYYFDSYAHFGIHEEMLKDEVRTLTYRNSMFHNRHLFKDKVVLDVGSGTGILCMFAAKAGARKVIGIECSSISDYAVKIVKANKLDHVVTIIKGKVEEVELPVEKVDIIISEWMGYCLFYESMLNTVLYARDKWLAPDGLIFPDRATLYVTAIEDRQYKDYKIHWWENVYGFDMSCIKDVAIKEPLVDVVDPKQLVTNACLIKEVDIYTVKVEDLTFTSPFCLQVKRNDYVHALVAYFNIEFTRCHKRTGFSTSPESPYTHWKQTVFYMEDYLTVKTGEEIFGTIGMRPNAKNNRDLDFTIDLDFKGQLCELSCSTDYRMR

No constants are given. Whether binding was seen depends on the method and setting. Binding seen in cells or lysates may run through a third protein. Some results given as binding are weak or reduced against the parent protein; the word gives no strength.

Experiment in all cases: co-IP
Assay [1] addresses PRMT1^228TAG (PRMT1 with acetyl-lysine incorporated at K228 by genetic code expansion) (human).
The target in another assay is Myc-tagged p300 (UniProt Q09472).
Assay [2] concerns the target Human PRMT1 with a C-terminal FLAG epitope tag (FLAG-tagged PRMT1) (human).

As to “FBXL17 (as in the co-immunoprecipitation with the genetic code expansion variants, Fig. 5G) (from UniProt Q9UF56 1-701)”, the binding entry in assay [1] was “binds”. Consider “endogenous PRMT1 (from UniProt Q99873 1-371) (enzyme)”, for which the binding result with Myc-tagged p300 is reported as “binds”.

For the substance “endogenous p300 (from UniProt Q09472 1-2414) (enzyme)”, the binding result in assay [2] is listed as “binds”.
